Test: general procedure: Fmoc solid-phase peptide synthesis; Wang resin (0.1 mmol/g loading); HBTU/HOBt/DIPEA (DMAP for first residue)
Settings: whole synthesis, scale of the general procedure 0.2 mmol

## IKVAV hybrid β-peptide
  outcome: the syntheses of these molecules failed as the N-terminal β-tripeptide portion could not be attached
